According to patent US20190203207A1, “Anabolic Enhancers for Ameliorating Neurodegeneration” (priority 2016, published 2019):
For at least one compound, name, drawing or mass did not settle the structure.

System: SIRT6
Assay: Immunoblot of SIRT6 and HIF2A with Vitexin (FIG. 17)
Settings: beta-actin loading control

For `O=c1cc(-c2ccc(O)cc2)oc2c([C@@H]3O[C@H](CO)[C@@H](O)[C@H](O)[C@H]3O)c(O)cc(O)c12` [Vitexin], the “HIF2A (endothelial PAS domain protein 1) level” value was “upgraded” and the SIRT6 immunoreactivity was “suppressed”.
